According to the supplement of paper PMC10849652:
The other results are listed elsewhere or left out.

Chains of the proteins cited; added tags and fusions are not shown. Lines headed by an entry give the natural chain unless they say otherwise; changes in a name come on top.
UniProt P51692: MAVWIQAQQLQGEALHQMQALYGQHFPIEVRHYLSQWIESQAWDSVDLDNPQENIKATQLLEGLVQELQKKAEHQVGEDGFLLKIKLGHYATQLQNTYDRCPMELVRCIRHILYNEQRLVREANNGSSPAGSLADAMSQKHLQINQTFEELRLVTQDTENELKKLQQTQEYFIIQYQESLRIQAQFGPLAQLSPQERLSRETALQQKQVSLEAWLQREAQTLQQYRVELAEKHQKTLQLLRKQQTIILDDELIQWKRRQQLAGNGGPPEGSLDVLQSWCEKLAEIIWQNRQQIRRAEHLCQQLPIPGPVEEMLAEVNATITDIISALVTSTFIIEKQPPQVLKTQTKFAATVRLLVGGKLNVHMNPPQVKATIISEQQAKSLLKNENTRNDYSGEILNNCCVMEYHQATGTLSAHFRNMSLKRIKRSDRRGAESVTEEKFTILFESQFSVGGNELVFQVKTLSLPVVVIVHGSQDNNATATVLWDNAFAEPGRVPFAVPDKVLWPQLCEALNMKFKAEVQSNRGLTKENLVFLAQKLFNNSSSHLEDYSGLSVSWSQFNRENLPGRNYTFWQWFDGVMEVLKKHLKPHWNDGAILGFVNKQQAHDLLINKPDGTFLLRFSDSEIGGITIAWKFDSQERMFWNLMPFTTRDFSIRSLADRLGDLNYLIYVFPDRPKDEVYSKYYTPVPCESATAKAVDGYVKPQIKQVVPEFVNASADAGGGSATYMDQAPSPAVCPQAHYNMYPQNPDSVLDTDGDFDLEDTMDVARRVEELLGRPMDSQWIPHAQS
UniProt P84103: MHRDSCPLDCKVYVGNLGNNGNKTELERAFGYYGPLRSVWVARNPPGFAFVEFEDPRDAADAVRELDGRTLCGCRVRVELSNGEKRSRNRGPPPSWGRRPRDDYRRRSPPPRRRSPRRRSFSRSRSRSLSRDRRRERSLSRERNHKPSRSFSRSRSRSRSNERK
UniProt Q6ZRS2, whole entry, looked up: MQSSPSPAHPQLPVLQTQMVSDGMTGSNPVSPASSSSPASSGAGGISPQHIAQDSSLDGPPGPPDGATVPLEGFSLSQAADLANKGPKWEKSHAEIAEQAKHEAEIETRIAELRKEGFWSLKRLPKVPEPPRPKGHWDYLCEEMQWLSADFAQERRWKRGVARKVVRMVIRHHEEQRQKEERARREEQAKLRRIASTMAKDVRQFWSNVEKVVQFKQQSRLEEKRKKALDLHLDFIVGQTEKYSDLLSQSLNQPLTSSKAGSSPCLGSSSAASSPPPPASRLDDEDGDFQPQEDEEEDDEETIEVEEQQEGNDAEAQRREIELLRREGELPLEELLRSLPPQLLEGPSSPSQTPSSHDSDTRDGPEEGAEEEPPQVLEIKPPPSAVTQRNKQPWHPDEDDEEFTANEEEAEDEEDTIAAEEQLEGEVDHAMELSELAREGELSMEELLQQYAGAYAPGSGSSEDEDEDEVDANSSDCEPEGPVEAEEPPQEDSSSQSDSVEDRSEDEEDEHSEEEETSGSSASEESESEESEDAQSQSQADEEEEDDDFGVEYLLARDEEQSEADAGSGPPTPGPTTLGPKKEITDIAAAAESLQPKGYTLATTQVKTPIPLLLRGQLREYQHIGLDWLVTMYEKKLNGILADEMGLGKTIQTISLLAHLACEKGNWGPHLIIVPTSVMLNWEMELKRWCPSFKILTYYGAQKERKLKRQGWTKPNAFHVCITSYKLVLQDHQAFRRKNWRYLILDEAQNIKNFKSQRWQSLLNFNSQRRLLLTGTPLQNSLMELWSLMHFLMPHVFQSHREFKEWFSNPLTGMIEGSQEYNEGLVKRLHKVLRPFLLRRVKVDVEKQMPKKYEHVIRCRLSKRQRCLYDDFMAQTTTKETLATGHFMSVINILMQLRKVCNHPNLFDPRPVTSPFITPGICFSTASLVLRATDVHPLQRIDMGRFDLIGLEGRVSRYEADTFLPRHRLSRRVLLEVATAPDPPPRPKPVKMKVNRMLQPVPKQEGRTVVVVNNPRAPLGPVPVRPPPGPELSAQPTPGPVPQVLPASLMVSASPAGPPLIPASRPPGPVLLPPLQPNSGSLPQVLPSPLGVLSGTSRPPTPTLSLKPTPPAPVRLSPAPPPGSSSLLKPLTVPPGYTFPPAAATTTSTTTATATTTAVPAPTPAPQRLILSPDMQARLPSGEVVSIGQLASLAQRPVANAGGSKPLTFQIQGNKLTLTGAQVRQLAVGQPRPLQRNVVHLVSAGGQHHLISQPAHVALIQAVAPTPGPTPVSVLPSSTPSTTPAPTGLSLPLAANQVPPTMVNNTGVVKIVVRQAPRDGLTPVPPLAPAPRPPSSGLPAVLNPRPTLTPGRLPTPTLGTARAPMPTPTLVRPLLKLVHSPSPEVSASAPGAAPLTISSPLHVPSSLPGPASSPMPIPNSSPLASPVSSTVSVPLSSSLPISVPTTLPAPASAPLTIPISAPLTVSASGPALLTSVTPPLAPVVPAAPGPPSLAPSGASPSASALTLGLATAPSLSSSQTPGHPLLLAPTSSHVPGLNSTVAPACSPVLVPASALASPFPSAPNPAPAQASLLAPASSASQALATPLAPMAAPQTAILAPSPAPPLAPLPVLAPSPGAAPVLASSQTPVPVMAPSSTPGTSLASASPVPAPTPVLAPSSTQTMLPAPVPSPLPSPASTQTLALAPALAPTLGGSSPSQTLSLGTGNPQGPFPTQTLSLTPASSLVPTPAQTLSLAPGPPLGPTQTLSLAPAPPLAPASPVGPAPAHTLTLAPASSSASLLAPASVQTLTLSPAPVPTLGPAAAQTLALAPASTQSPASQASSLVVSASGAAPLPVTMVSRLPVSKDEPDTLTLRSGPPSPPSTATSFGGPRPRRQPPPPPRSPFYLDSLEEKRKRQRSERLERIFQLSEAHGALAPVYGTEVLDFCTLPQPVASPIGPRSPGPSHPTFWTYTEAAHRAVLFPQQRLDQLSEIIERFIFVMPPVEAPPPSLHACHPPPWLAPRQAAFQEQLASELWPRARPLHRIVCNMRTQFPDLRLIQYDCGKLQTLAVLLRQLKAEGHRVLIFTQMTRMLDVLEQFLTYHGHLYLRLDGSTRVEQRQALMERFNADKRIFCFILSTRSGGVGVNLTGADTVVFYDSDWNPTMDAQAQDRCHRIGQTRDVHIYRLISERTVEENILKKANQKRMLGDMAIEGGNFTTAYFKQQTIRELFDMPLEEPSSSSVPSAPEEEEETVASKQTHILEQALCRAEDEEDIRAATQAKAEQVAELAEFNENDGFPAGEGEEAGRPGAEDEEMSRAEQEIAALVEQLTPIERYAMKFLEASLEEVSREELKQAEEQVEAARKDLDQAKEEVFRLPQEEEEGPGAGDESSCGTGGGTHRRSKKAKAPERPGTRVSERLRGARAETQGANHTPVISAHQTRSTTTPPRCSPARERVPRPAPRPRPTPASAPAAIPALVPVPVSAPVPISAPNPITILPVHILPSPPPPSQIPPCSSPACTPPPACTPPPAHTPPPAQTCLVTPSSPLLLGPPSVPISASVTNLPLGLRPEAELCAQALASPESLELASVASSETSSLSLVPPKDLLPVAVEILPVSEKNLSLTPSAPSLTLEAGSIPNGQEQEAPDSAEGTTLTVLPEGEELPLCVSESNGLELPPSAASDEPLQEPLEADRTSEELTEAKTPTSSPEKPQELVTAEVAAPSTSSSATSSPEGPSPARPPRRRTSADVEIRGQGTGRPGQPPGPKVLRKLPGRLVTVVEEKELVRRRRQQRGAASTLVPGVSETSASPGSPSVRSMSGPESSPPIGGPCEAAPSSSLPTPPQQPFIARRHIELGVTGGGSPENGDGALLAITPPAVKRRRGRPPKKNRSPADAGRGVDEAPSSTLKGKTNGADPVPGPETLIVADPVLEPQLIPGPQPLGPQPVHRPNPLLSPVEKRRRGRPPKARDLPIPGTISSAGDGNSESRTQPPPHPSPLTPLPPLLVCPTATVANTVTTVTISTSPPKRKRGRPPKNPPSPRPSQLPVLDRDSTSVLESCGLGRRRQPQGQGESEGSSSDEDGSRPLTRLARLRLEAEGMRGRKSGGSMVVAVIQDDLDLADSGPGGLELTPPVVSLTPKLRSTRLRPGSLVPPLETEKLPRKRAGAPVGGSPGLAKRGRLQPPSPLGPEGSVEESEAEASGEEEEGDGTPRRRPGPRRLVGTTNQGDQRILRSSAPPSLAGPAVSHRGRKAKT
UniProt Q01082, whole entry, looked up: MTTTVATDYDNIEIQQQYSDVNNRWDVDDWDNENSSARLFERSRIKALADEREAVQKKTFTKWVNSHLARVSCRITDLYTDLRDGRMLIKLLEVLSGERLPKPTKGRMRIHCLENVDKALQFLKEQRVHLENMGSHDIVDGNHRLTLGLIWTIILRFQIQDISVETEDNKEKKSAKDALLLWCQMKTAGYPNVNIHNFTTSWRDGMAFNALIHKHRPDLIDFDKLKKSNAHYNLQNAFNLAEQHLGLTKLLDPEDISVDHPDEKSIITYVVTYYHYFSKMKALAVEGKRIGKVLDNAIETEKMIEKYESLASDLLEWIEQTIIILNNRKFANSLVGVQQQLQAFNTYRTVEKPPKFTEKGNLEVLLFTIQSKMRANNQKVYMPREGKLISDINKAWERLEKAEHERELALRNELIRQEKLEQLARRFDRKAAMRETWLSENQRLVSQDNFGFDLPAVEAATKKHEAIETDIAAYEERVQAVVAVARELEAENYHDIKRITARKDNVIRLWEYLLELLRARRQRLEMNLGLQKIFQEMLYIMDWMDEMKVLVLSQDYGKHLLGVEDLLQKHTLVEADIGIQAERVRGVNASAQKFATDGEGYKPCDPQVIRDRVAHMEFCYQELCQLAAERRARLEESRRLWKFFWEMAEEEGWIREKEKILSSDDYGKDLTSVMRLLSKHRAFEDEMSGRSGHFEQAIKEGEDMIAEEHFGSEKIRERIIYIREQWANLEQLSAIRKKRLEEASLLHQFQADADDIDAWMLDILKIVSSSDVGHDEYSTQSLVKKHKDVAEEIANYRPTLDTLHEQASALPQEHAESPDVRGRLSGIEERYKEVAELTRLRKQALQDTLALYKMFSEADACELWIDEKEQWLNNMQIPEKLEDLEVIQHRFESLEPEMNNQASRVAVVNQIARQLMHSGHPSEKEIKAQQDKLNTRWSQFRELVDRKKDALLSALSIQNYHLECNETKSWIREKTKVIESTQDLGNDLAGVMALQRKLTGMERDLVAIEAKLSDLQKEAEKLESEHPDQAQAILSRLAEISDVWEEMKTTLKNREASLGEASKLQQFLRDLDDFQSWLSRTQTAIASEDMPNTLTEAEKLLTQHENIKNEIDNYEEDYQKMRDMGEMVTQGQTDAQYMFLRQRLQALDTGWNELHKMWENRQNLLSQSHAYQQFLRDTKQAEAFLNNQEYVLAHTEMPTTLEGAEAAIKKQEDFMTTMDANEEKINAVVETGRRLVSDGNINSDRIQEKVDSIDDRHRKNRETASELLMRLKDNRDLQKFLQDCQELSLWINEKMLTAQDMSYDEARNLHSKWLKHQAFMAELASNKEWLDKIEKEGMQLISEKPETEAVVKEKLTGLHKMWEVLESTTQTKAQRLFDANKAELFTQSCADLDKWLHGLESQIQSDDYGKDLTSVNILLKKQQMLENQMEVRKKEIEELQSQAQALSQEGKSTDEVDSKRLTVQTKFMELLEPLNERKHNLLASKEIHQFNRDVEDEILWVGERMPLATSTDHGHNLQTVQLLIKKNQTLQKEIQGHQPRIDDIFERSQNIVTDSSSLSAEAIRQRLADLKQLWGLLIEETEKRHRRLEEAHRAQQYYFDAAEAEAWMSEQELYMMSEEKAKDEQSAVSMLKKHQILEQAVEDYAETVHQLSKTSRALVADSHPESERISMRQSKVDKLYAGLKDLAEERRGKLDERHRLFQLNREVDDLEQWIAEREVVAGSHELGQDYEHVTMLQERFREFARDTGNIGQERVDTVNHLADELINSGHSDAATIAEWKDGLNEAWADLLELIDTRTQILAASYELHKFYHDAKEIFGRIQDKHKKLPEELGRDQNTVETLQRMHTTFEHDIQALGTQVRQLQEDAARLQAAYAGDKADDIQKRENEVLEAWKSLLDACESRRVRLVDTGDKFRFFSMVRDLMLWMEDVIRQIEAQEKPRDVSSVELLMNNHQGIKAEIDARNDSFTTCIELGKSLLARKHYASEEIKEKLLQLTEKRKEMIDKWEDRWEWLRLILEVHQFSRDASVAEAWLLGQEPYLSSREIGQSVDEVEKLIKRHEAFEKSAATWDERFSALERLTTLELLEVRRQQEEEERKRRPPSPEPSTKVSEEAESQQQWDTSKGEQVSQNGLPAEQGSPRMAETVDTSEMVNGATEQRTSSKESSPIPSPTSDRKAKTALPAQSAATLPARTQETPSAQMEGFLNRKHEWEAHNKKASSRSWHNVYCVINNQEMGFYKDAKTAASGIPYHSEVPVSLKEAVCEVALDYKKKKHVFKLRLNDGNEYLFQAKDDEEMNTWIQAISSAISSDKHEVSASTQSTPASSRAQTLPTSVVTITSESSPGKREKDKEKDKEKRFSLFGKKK

Assays:
Assay in all cases: log2 fold change, soluble protein after heating vs DMSO (PISA); higher = thermal stabilisation; K562 cells, 10 uM, 30 min; active = over 0.2 and 3.5 SD of the protein, either way, in both replicates (recomputed)
[1] = compound: CC1=C(C=C(C=C1)NC(=O)C2=CC(=CC=C2)C(C)(C)C#N)NC3=CC4=C(C=C3)N=CN(C4=O)C
How it was run: (§1)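 Soluble protein was quantified by TMTpro 16plex LC-MS/MS after channel sums were equalised. It was obtained as the supernatant after 21,000xg for 90 min from pooled aliquots of K562 cells (2×10^6 cells/mL, 10 μM compound, 30 min) heated for 3 min across 48°C-58°C and extracted in PBS with 0.5% NP-40 at 4°C. Thermal stability values are relative to control samples and come from duplicates. They are given as log2 fold changes.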

[2] = compound: CC1=C(C=C(C=C1)NC(=O)C2=CC(=CC=C2)N(C)C)NC(=O)C3=CC=C(C=C3)O
How it was run: as §1

[3] = compound: CC1=CC=C(C=C1)SC2=C3C=C(SC3=CN=C2)C(=O)N
How it was run: as §1

[4] = compound: CCCCN(Cc1ccc(C(=O)NO)cc1)C(=O)Nc1ccccc1 [Nexturastat A]
How it was run: as §1

[5] = compound: CCCS(=O)(=O)Nc1ccc(F)c(C(=O)c2c[nH]c3ncc(-c4ccc(Cl)cc4)cc23)c1F [vemurafenib]
How it was run: as §1

[6] = compound: CCCS(=O)(=O)Nc1ccc(F)c(C(=O)c2c[nH]c3ncc(Cl)cc23)c1F
How it was run: as §1

[7] = compound: CCCc1cc(C)[nH]c(=O)c1CNC(=O)c1cc(-c2ccnc(N3CCN(C)CC3)c2)cc2c1cnn2C(C)C
How it was run: as §1

[8] = compound: CCN(CC)Cc1ccc2cc(COC(=O)Nc3ccc(C(=O)NO)cc3)ccc2c1 [givinostat]
How it was run: as §1

[9] = compound: CCN(CCCOc1ccc2c(Nc3cc(CC(=O)Nc4cccc(F)c4)[nH]n3)ncnc2c1)CCOP(=O)(O)O [barasertib]
How it was run: as §1

[10] = compound: CC[C@@H]1C(=O)N(C)c2cnc(Nc3ccc(C(=O)NC4CCN(C)CC4)cc3OC)nc2N1C1CCCC1
How it was run: as §1

[11] = compound: CC[C@@H]1C(=O)N(C)c2cnc(Nc3ccc(C(=O)N[C@H]4CC[C@H](N5CCN(CC6CC6)CC5)CC4)cc3OC)nc2N1C(C)C [volasertib]
How it was run: as §1

[12] = compound: CC[C@H](C)N1C=C(C2=C(C=C(C=C21)C3=CN=C(C=C3)N4CCNCC4)C(=O)NCC5=C(C=C(NC5=O)C)C)C
How it was run: as §1

[13] = compound: CC[C@H](C)[C@@H](C(=O)N[C@@H]([C@@H](C)O)C(=O)N[C@@H](CC(C)C)C(=O)[C@]1(CO1)C)NC(=O)[C@H]([C@@H](C)CC)N(C)C(=O)C [epoxomicin]
How it was run: as §1

[14] = compound: CCn1c(C(=O)N(C2CC2)C2CC2)cc2c3c(ncn3C)c(Nc3cc(C)n(C)n3)nc21
How it was run: as §1

[15] = compound: CCn1cc(-c2ccnc3[nH]c(-c4cccc(CN(C)C)c4)cc23)c(-c2ccc(NC(=O)N(C)C)cc2)n1
How it was run: as §1

[16] = compound: CN(C)CC(=O)Nc1ccc2[nH]c(=O)c3ccccc3c2c1
How it was run: as §1

[17] = compound: CN(CCOC1=CC=C(C=C1)C[C@H]2C(=O)NC(=O)S2)C3=CC=CC=N3 (racemic) [rosiglitazone]
How it was run: as §1

[18] = compound: CN1C2=C(C3=C1C(=O)N(N=C3)CC4=CC(=CC=C4)N)SC(=C2)S(=O)C
How it was run: as §1

[19] = compound: CN1CCC(CNc2ccc3ncc(-c4cccc(OC(F)(F)F)c4)n3n2)CC1
How it was run: as §1

[20] = compound: CC1=NC(=CC=C1)C2=C(N=C(N2)C(C)(C)C)C3=CC4=NC=CN=C4C=C3
How it was run: as §1

Measured: log2 fold change

SREK1IP1 (UniProt Q8N9Q2)
inactive: [1] 0.001 | [2] -0.004 | [3] -0.051 | [4] 0.109 | [5] -0.003 | [6] -0.016 | [7] -0.007 | [8] -0.171 | [9] -0.044 | [10] 0.053 | [11] 0.123 | [12] -0.002 | [13] -0.106 | [14] 0.136 | [15] 0.056 | [16] -0.081 | [17] -0.021 | [18] 0 | [19] 0.026

ST6GAL1 (UniProt P15907)
active: [10] -0.221
inactive: [1] 0.025 | [2] -0.032 | [3] -0.028 | [20] -0.064 | [4] -0.031 | [5] -0.1 | [6] -0.069 | [7] 0.047 | [8] -0.005 | [9] -0.014 | [11] -0.257 | [12] 0.003 | [13] -0.066 | [15] 0.01 | [16] 0.041 | [18] -0.057 | [19] -0.149

SRFBP1 (UniProt Q8NEF9)
inactive: [1] 0.008 | [2] -0.019 | [3] -0.127 | [20] -0.025 | [4] 0.111 | [6] -0.012 | [7] -0.012 | [8] -0.061 | [9] -0.045 | [10] 0.208 | [11] 0.157 | [12] -0.094 | [13] -0.047 | [15] 0.049 | [18] 0.117 | [19] 0.277

SPATA33 isoform 2 (UniProt Q96N06)
inactive: [1] 0.002 | [2] 0.065 | [3] -0.049 | [5] 0.034 | [6] 0.095 | [8] 0.132 | [9] -0.109 | [10] -0.092 | [11] 0.102 | [12] -0.098 | [14] -0.128 | [15] -0.008 | [16] -0.066 | [17] 0.052 | [18] -0.06 | [19] 0.048

STK26 (UniProt Q9P289)
inactive: [1] -0.083 | [2] -0.037 | [3] 0.068 | [20] 0.015 | [4] 0.044 | [5] -0.04 | [6] -0.03 | [7] 0.014 | [8] 0.086 | [9] 0.08 | [10] -0.017 | [11] -0.062 | [12] 0.018 | [13] 0.084 | [15] -0.117 | [16] -0.033 | [18] 0.014 | [19] -0.191

STAU2 (UniProt Q9NUL3)
inactive: [1] 0.019 | [3] -0.04 | [20] -0.079 | [4] 0.626 | [5] -0.222 | [6] -0.149 | [7] 0.162 | [8] 0.062 | [9] -0.109 | [10] 0.2 | [11] 0.494 | [13] 0.063 | [14] -0.008 | [15] 0.12 | [16] -0.003 | [17] -0.271 | [18] 0.356 | [19] 0.068

SSBP4 (UniProt Q9BWG4)
inactive: [1] 0.056 | [2] -0.017 | [3] -0.133 | [20] 0.003 | [6] 0.021 | [7] -0.036 | [8] -0.042 | [9] 0.053 | [10] 0 | [11] -0.056 | [12] -0.036 | [15] -0.009 | [18] -0.238 | [19] 0.036

STAT5B (UniProt P51692)
inactive: [1] -0.165 | [2] -0.102 | [3] 0.222 | [20] 0.111 | [4] 0.014 | [5] 0.046 | [6] 0.08 | [7] 0.101 | [8] 0.145 | [9] 0.113 | [10] -0.221 | [11] -0.333 | [12] 0.36 | [13] 0.004 | [15] 0.052 | [16] 0.105 | [18] -0.063 | [19] -0.045

SRC isoform 2 (UniProt P12931)
inactive: [1] -0.006 | [2] 0.022 | [3] -0.016 | [20] -0.06 | [4] -0.075 | [5] 0.068 | [6] 0.069 | [7] -0.06 | [8] -0.091 | [9] -0.01 | [10] 0.079 | [11] -0.03 | [12] 0.108 | [13] -0.16 | [15] -0.066 | [16] -0.032 | [18] -0.002 | [19] -0.149

STARD3 (UniProt Q14849)
active: [19] -0.386
inactive: [1] 0.103 | [2] 0.075 | [3] -0.027 | [20] 0.036 | [4] -0.048 | [5] 0.052 | [6] -0.059 | [7] 0 | [8] 0.011 | [9] 0.016 | [11] 0.115 | [12] 0.091 | [13] -0.019 | [15] 0.039 | [16] -0.037 | [18] -0.064

STAT3 (UniProt P40763)
inactive: [1] 0.012 | [2] 0.001 | [3] -0.009 | [20] -0.008 | [4] 0.005 | [5] 0.101 | [6] 0.102 | [7] 0.017 | [8] 0.089 | [9] 0.064 | [12] 0.056 | [13] 0.002 | [15] -0.059 | [16] 0.052 | [18] -0.047
active: [10] -0.336 | [11] -0.767 | [19] -0.275

SRSF3 (UniProt P84103)
inactive: [1] -0.019 | [2] 0.047 | [3] -0.208 | [20] -0.103 | [4] 0.124 | [5] -0.064 | [6] -0.173 | [7] 0.047 | [8] -0.029 | [9] -0.093 | [10] 0.198 | [11] 0.313 | [12] -0.075 | [13] -0.213 | [15] 0.189 | [16] -0.139 | [18] 0.18 | [19] 0.233

2 entries picked at random from the list so far:
SRSF3 (UniProt P84103)
inactive: [1] -0.019 | [2] 0.047 | [3] -0.208 | [20] -0.103 | [4] 0.124 | [5] -0.064 | [6] -0.173 | [7] 0.047 | [8] -0.029 | [9] -0.093 | [10] 0.198 | [11] 0.313 | [12] -0.075 | [13] -0.213 | [15] 0.189 | [16] -0.139 | [18] 0.18 | [19] 0.233

STAT5B (UniProt P51692)
inactive: [1] -0.165 | [2] -0.102 | [3] 0.222 | [20] 0.111 | [4] 0.014 | [5] 0.046 | [6] 0.08 | [7] 0.101 | [8] 0.145 | [9] 0.113 | [10] -0.221 | [11] -0.333 | [12] 0.36 | [13] 0.004 | [15] 0.052 | [16] 0.105 | [18] -0.063 | [19] -0.045

Next records

STARD3NL (UniProt O95772)
inactive: [1] 0.01 | [2] -0.002 | [3] 0.056 | [20] 0.076 | [4] -0.12 | [5] 0.02 | [6] 0.048 | [7] -0.021 | [8] 0.009 | [9] -0.027 | [10] 0.037 | [11] -0.022 | [12] -0.036 | [13] -0.085 | [15] -0.014 | [16] -0.068 | [18] -0.058
active: [19] -0.371

SRCAP (UniProt Q6ZRS2)
inactive: [1] -0.177 | [2] -0.286 | [3] 0.058 | [20] 0.036 | [5] 0.278 | [6] 0.082 | [7] -0.02 | [8] -0.041 | [9] 0.026 | [10] 0.068 | [11] -0.207 | [12] -0.059 | [15] -0.041 | [16] 0.121 | [18] -0.001 | [19] -0.006

SQSTM1 (UniProt Q13501)
inactive: [1] 0.04 | [2] -0.065 | [3] -0.054 | [20] -0.012 | [4] 0.102 | [5] 0.064 | [6] 0.047 | [7] 0.103 | [8] -0.027 | [9] 0.032 | [10] -0.09 | [11] -0.204 | [12] 0.021 | [13] -0.056 | [15] -0.112 | [16] 0.042 | [18] 0.043 | [19] -0.022

SRSF4 (UniProt Q08170)
inactive: [1] 0.042 | [2] -0.001 | [3] -0.067 | [20] -0.032 | [4] 0.074 | [5] -0.027 | [6] 0.017 | [7] 0.224 | [8] 0.052 | [9] -0.064 | [10] 0.091 | [11] -0.001 | [12] 0.011 | [13] -0.175 | [15] 0.115 | [16] -0.09 | [18] 0.205 | [19] 0.087

ST3GAL2 (UniProt Q16842)
active: [11] -0.562 | [19] -0.474
inactive: [1] 0.064 | [2] -0.054 | [3] -0.216 | [20] 0.066 | [4] -0.012 | [5] -0.032 | [6] -0.013 | [7] 0.212 | [8] 0.078 | [9] 0.112 | [10] -0.28 | [12] -0.053 | [13] -0.053 | [15] 0.062 | [16] 0.005 | [18] -0.071

SPTBN1 (UniProt Q01082)
inactive: [1] 0.018 | [2] 0.02 | [3] 0.004 | [20] -0.036 | [4] 0.088 | [5] 0.058 | [6] 0.006 | [7] 0.051 | [8] 0.049 | [9] 0.019 | [10] 0.009 | [11] -0.163 | [12] 0.079 | [13] -0.024 | [15] 0.013 | [16] 0.018 | [18] 0.081 | [19] 0.048

SPIRE2 (UniProt Q8WWL2)
inactive: [1] 0.155 | [2] 0.455 | [20] 0.244 | [4] -0.616 | [9] -0.109 | [10] -0.023 | [13] -0.866 | [15] 0.041 | [17] -0.033 | [18] 0.222 | [19] 0.221

SRBD1 (UniProt Q8N5C6)
inactive: [4] 0.072 | [13] -0.108 | [15] 0.181 | [19] 0.056
